{"source": "PubChem BioAssay AID1117283", "about": "(Broad Institute, 2014)", "note": "The inconclusive results got no clear call from the source; some entries with a clear call stand among them for comparison. The source made the active and inactive calls.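 Rule for the calls: active = fluorescent signal decreased by at least 40%; inconclusive = no clear call, values can overlap the other calls; inactive = the rest, including activity opposite to the expected direction.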", "data": [{"assay": "fibronectin fibrillogenesis inhibitors in fibroblasts, dose response, AH1F cells, Alexa488-fibronectin fluorescence, cherry-pick, set 2 (AID 1117283);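 note: AH1F fibroblasts given Alexa488-labelled fibronectin at 24 nM final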", "details": "Alexa488-fibronectin deposition fluorescence, overnight; at 35 µM (top of the series)", "values": [{"smiles": "CCN1CCN(C(c2ccccc2)c2nnnn2Cc2ccccc2)CC1", "note": "(stereo not drawn)", "activity change, negative = inhibition": "inconclusive: -6.77%"}, {"smiles": "COC(=O)C[C@H]1CC[C@@H]2[C@H](COc3ccc(NC(=O)Cc4cccs4)cc3C(=O)N2C)O1", "activity change, negative = inhibition": "inconclusive: 22.1%"}, {"smiles": "O=C(c1cccnc1)N1C[C@@H]2[C@H](c3ccccc31)[C@@H](CO)N2CC1CCCC1", "activity change, negative = inhibition": "inactive: -3.72%"}]}]}
